Results on 1 molecule are retold here after PMC5047681.

Results are given in words; binding and its absence hold for the method and conditions named. In cells and extracts the contact can be indirect. Some binding calls cover weakened binding; strength is not graded here.

The assay concerns the target T1, Ras-associated binding protein 11b (mouse (endogenous in primary hippocampal neurons)) (UniProt P46638).
T1 sequence: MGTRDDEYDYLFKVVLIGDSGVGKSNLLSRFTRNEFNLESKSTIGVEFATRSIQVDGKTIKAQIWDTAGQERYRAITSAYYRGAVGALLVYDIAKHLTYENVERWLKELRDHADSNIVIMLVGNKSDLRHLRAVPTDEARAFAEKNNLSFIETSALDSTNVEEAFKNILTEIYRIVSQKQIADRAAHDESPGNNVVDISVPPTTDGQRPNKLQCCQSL
Nature of the assay: co-IP; lysate of DIV12 mouse hippocampal neurons (untreated controls or treated with 2 ng/ml TGF-β2); non-denaturing lysis buffer (50 mM Tris-HCl pH 7.4, 300 mM NaCl, 5 mM EDTA, 1% Triton X-100); anti-Rab11b or anti-KCC2 antibody on protein-A-Sepharose beads, overnight at 4°C; immunoblot for the other protein.

B1: K+-Cl- co-transporter KCC2 (protein, UniProt Q91V14-2 1-1115)
chain: MLNNLTDCEDGDGGANPGDGNPKESSPFINSTDTEKGREYDGRNMALFEEEMDTSPMVSSLLSGLANYTNLPQGSREHEEAENNEGGKKKPVQAPRMGTFMGVYLPCLQNIFGVILFLRLTWVVGIAGIMESFCMVFICCSCTMLTAISMSAIATNGVVPAGGSYYMISRSLGPEFGGAVGLCFYLGTTFAGAMYILGTIEILLAYLFPAMAIFKAEDASGEAAAMLNNMRVYGTCVLTCMATVVFVGVKYVNKFALVFLGCVILSILAIYAGVIKSAFDPPNFPICLLGNRTLSRHGFDVCAKLAWEGNETVTTRLWGLFCSSRLLNATCDEYFTRNNVTEIQGIPGAASGLIKENLWSSYLTKGVIVERRGMPSVGLADGTPVDMDHPYVFSDMTSYFTLLVGIYFPSVTGIMAGSNRSGDLRDAQKSIPTGTILAIATTSAVYISSVVLFGACIEGVVLRDKFGEAVNGNLVVGTLAWPSPWVIVIGSFFSTCGAGLQSLTGAPRLLQAISRDGIVPFLQVFGHGKANGEPTWALLLTACICEIGILIASLDEVAPILSMFFLMCYMFVNLACAVQTLLRTPNWRPRFRYYHWTLSFLGMSLCLALMFICSWYYALVAMLIAGLIYKYIEYRGAEKEWGDGIRGLSLSAARYALLRLEEGPPHTKNWRPQLLVLVRVDQDQNVVHPQLLSLTSQLKAGKGLTIVGSVLEGTFLDNHPQAQRAEESIRRLMEAEKVKGFCQVVISSNLRDGVSHLIQSGGLGGLQHNTVLVGWPRNWRQKEDHQTWRNFIELVRETTAGHLALLVTKNVSMFPGNPERFSEGSIDVWWIVHDGGMLMLLPFLLRHHKVWRKCKMRIFTVAQMDDNSIQMKKDLTTFLYHLRITAEVEVVEMHESDISAYTYEKTLVMEQRSQILKQMHLTKNEREREIQSITDESRGSIRRKNPANPRLRLNVPEETACDNEEKPEEEVQLIHDQSAPSCPSSSPSPGEEPEGERETDPEVHLTWTKDKSVAEKNKGPSPVSSEGIKDFFSMKPEWENLNQSNVRRMHTAVRLNEVIVNKSRDAKLVLLNMPGPPRNRNGDENYMEFLEVLTEQLDRVMLVRGGGREVITIYS
As for B1, the binding result is reported as “binds”.
